Measured values from PMC12808100, “The non-catalytic DNA polymerase ε subunit is an NPF motif recognition protein” (Nature Communications, 2025).
No constants are given. Whether binding was seen depends on the method and setting. Some binding calls cover weakened binding; strength is not graded here. Sequences can lack the tags named with a protein. Values belong to the binder of their own block, whether it stands above or below them.

Target: His6-AviTag-MBP-TEV-POLE2 (human) (UniProt P56282)
Experiment: native holdup (nHU) titration with dot blot; purified His6-avi-MBP-tagged POLE2 as bait on resin; extracts of HEK293T cells transfected with HA-tagged full length proteins; 4 °C, 2 h; anti-HA dot blot; apparent; only the target purified

binding: binds
B1: HA-WDHD1, full length, intact NPF motif (protein, UniProt O75717 1-1129)
chain: MPATRKPMRYGHTEGHTEVCFDDSGSFIVTCGSDGDVRIWEDLDDDDPKFINVGEKAYSCALKSGKLVTAVSNNTIQVHTFPEGVPDGILTRFTTNANHVVFNGDGTKIAAGSSDFLVKIVDVMDSSQQKTFRGHDAPVLSLSFDPKDIFLASASCDGSVRVWQISDQTCAISWPLLQKCNDVINAKSICRLAWQPKSGKLLAIPVEKSVKLYRRESWSHQFDLSDNFISQTLNIVTWSPCGQYLAAGSINGLIIVWNVETKDCMERVKHEKGYAICGLAWHPTCGRISYTDAEGNLGLLENVCDPSGKTSSSKVSSRVEKDYNDLFDGDDMSNAGDFLNDNAVEIPSFSKGIINDDEDDEDLMMASGRPRQRSHILEDDENSVDISMLKTGSSLLKEEEEDGQEGSIHNLPLVTSQRPFYDGPMPTPRQKPFQSGSTPLHLTHRFMVWNSIGIIRCYNDEQDNAIDVEFHDTSIHHATHLSNTLNYTIADLSHEAILLACESTDELASKLHCLHFSSWDSSKEWIIDLPQNEDIEAICLGQGWAAAATSALLLRLFTIGGVQKEVFSLAGPVVSMAGHGEQLFIVYHRGTGFDGDQCLGVQLLELGKKKKQILHGDPLPLTRKSYLAWIGFSAEGTPCYVDSEGIVRMLNRGLGNTWTPICNTREHCKGKSDHYWVVGIHENPQQLRCIPCKGSRFPPTLPRPAVAILSFKLPYCQIATEKGQMEEQFWRSVIFHNHLDYLAKNGYEYEESTKNQATKEQQELLMKMLALSCKLEREFRCVELADLMTQNAVNLAIKYASRSRKLILAQKLSELAVEKAAELTATQVEEEEEEEDFRKKLNAGYSNTATEWSQPRFRNQVEEDAEDSGEADDEEKPEIHKPGQNSFSKSTNSSDVSAKSGAVTFSSQGRVNPFKVSASSKEPAMSMNSARSTNILDNMGKSSKKSTALSRTTNNEKSPIIKPLIPKPKPKQASAASYFQKRNSQTNKTEEVKEENLKNVLSETPAICPPQNTENQRPKTGFQMWLEENRSNILSDNPDFSDEADIIKEGMIRFRVLSTEERKVWANKAKGETASEGTEAKKRKRVVDESDETENQEEKAKENLNLSKKQKPLDFSTNQKLSAFAFKQE

binding: binds
B2: HA-ERCC6L, full length, intact NPF motif (protein, UniProt Q2NKX8 1-1250)
chain: MEASRRFPEAEALSPEQAAHYLRYVKEAKEATKNGDLEEAFKLFNLAKDIFPNEKVLSRIQKIQEALEELAEQGDDEFTDVCNSGLLLYRELHNQLFEHQKEGIAFLYSLYRDGRKGGILADDMGLGKTVQIIAFLSGMFDASLVNHVLLIMPTNLINTWVKEFIKWTPGMRVKTFHGPSKDERTRNLNRIQQRNGVIITTYQMLINNWQQLSSFRGQEFVWDYVILDEAHKIKTSSTKSAICARAIPASNRLLLTGTPIQNNLQELWSLFDFACQGSLLGTLKTFKMEYENPITRAREKDATPGEKALGFKISENLMAIIKPYFLRRTKEDVQKKKSSNPEARLNEKNPDVDAICEMPSLSRKNDLIIWIRLVPLQEEIYRKFVSLDHIKELLMETRSPLAELGVLKKLCDHPRLLSARACCLLNLGTFSAQDGNEGEDSPDVDHIDQVTDDTLMEESGKMIFLMDLLKRLRDEGHQTLVFSQSRQILNIIERLLKNRHFKTLRIDGTVTHLLEREKRINLFQQNKDYSVFLLTTQVGGVGLTLTAATRVVIFDPSWNPATDAQAVDRVYRIGQKENVVVYRLITCGTVEEKIYRRQVFKDSLIRQTTGEKKNPFRYFSKQELRELFTIEDLQNSVTQLQLQSLHAAQRKSDIKLDEHIAYLQSLGIAGISDHDLMYTCDLSVKEELDVVEESHYIQQRVQKAQFLVEFESQNKEFLMEQQRTRNEGAWLREPVFPSSTKKKCPKLNKPQPQPSPLLSTHHTQEEDISSKMASVVIDDLPKEGEKQDLSSIKVNVTTLQDGKGTGSADSIATLPKGFGSVEELCTNSSLGMEKSFATKNEAVQKETLQEGPKQEALQEDPLESFNYVLSKSTKADIGPNLDQLKDDEILRHCNPWPIISITNESQNAESNVSIIEIADDLSASHSALQDAQASEAKLEEEPSASSPQYACDFNLFLEDSADNRQNFSSQSLEHVEKENSLCGSAPNSRAGFVHSKTCLSWEFSEKDDEPEEVVVKAKIRSKARRIVSDGEDEDDSFKDTSSINPFNTSLFQFSSVKQFDASTPKNDISPPGRFFSSQIPSSVNKSMNSRRSLASRRSLINMVLDHVEDMEERLDDSSEAKGPEDYPEEGVEESSGEASKYTEEDPSGETLSSENKSSWLMTSKPSALAQETSLGAPEPLSGEQLVGSPQDKAAEATNDYETLVKRGKELKECGKIQEALNCLVKALDIKSADPEVMLLTLSLYKQLNNN

binding: binds
B3: HA-TTF2, full length, intact NPF motifs (protein, UniProt Q9UNY4 1-1162)
chain: MEEVRCPEHGTFCFLKTGVRDGPNKGKSFYVCRADTCSFVRATDIPVSHCLLHEDFVVELQGLLLPQDKKEYRLFFRCIRSKAEGKRWCGSIPWQDPDSKEHSVSNKSQHASETFHHSSNWLRNPFKVLDKNQEPALWKQLIKGEGEEKKADKKQREKGDQLFDQKKEQKPEMMEKDLSSGLVPKKKQSVVQEKKQEEGAEIQCEAETGGTHKRDFSEIKSQQCQGNELTRPSASSQEKSSGKSQDVQRESEPLREKVTQLLPQNVHSHNSISKPQKGGPLNKEYTNWEAKETKAKDGPSIQATQKSLPQGHFQERPETHSVPAPGGPAAQAAPAAPGLSLGEGREAATSSDDEEEDDVVFVSSKPGSPLLFDSTLDLETKENLQFPDRSVQRKVSPASGVSKKVEPSDPVARRVYLTTQLKQKKSTLASVNIQALPDKGQKLIKQIQELEEVLSGLTLSPEQGTNEKSNSQVPQQSHFTKTTTGPPHLVPPQPLPRRGTQPVGSLELKSACQVTAGGSSQCYRGHTNQDHVHAVWKITSEAIGQLHRSLESCPGETVVAEDPAGLKVPLLLHQKQALAWLLWRESQKPQGGILADDMGLGKTLTMIALILTQKNQEKKEEKEKSTALTWLSKDDSCDFTSHGTLIICPASLIHHWKNEVEKRVNSNKLRVYLYHGPNRDSRARVLSTYDIVITTYSLVAKEIPTNKQEAEIPGANLNVEGTSTPLLRIAWARIILDEAHNVKNPRVQTSIAVCKLQACARWAVTGTPIQNNLLDMYSLLKFLRCSPFDEFNLWRSQVDNGSKKGGERLSILTKSLLLRRTKDQLDSTGRPLVILPQRKFQLHHLKLSEDEETVYNVFFARSRSALQSYLKRHESRGNQSGRSPNNPFSRVALEFGSEEPRHSEAADSPRSSTVHILSQLLRLRQCCCHLSLLKSALDPMELKGEGLVLSLEEQLSALTLSELRDSEPSSTVSLNGTFFKMELFEGMRESTKISSLLAELEAIQRNSASQKSVIVSQWTNMLKVVALHLKKHGLTYATIDGSVNPKQRMDLVEAFNHSRGPQVMLISLLAGGVGLNLTGGNHLFLLDMHWNPSLEDQACDRIYRVGQQKDVVIHRFVCEGTVEEKILQLQEKKKDLAKQVLSGSGESVTKLTLADLRVLFGI
